# Results are given in words; binding and its absence hold for the method and conditions named. Some binding calls cover weakened binding; strength is not graded here.
# Molecular target: IPNV VP1 lacking the C-terminal 55 residues (ΔC55) (infectious pancreatic necrosis virus (IPNV) strain Jasper) (UniProt P22173)
# Experiment: crystal structure; ΔC55 VP1 crystals (apo, Mg-soaked, and apo in a large unit cell); 5.8-6.8 mg/mL protein, PEG3350, bis-Tris propane pH 7.5, sodium citrate, 20.5°C; both purified
substance,measurement,value
IPNV VP1 lacking the C-terminal 55 residues (ΔC55) (from UniProt P22173 1-790) (domain or fragment),binding,binds weakly

# Reference: paper PMC3121795
